Test results taken from publication PMC5193075 (The Journal of Pharmacology and Experimental Therapeutics, 2017).

Experiment: Unbound drug fraction in cell culture medium by rapid equilibrium dialysis
Assay type: in vitro ADME
Details: bovine, bovine serum albumin-containing cell culture medium

For `CCN(CC)CC(=O)Nc1c(C)cccc1C` [Lidocaine, lidocaine], the fraction unbound was 0.88.
